Results as given in article PMC7760315 (Biomolecules, 2020).

What follows are molecules tested on GlyRα1/GlyT2 (assay: Two-electrode voltage clamp, oocytes co-expressing GlyRα1/GlyT2). Conditions: 1 µM lipid; fast-flow.
Format: cell-based, human
Excerpt: Human GlyT1b and GlyT2a WT cDNA were subcloned into the plasmid oocyte transcription vector (pOTV) and human GlyRα1, GlyRα3 and GlyRβ into pGEMHE. GlyR cDNA pGEMHE vectors were provided by Mary Collins at the University of Sydney (Sydney, Australia). Single point mutations were introduced into GlyRα1 using the Q5 site-directed mutagenesis kit (New England Biolabs (Genesearch), Arundel, Australia) with oligonucleotide primers (Merck, Sydney, Australia) containing the desired mutations. The amplified cDNA/pOTV or cDNA/pGEMHE product was then transformed in E. coli cells, and subsequently purified using the PureLink Quick Plasmid Miniprep Kit (Invitrogen by Life Technologies, Löhne, Germany), and sequenced by the Australian Genome Research Facility (Sydney, Australia). The purified plasmid DNA was linearised via the restriction enzyme, SpeI (New England Biolabs (Genesearch), Arundel, Australia) for GlyT1b and GlyT2a (henceforth referred to as GlyT1 and GlyT2 respectively) and NheI (New England Biolabs (Genesearch)) for GlyRα1, GlyRα3 and GlyRβ. Complementary RNAs were synthesised using the mMESAGE mMACHINE T7 kit (Ambion, Austin, TX, USA).
All work involving the use of animals was performed in accordance with the Australian Code of Practice for the Care and Use of Animals for Scientific Purposes and approved by the University of Sydney Animal Ethics Committee (Approval numbers 2016/970 and 2020/1704). […] The oocytes were then stored in frog Ringer’s solution (96 mM NaCl, 2 mM KCl, 1 mM MgCl2, 1.8 mM CaCl2, 5 mM HEPES, pH 7.5) which was supplemented with 2.5 mM sodium pyruvate, 0.5 mM theophylline, 50 μg/mL gentamicin and 100 μM mL^−1 tetracycline. […]
GlyT1, GlyT2, GlyRα1, GlyRα3, GlyRα1β and GlyRα3β are electrogenic, allowing activation to be measured via the two-electrode voltage clamp technique. Oocytes were voltage clamped at −60 mV, and whole-cell currents generated by the substrate were recorded with a Geneclamp 500 amplifier (Axon Instruments, Foster City, CA, USA), digitised by a Powerlab 2/20 chart recorder (ADInstruments, Sydney, Australia). […]

SMILES	nH of glycine dose-response in the presence of lipid [ns]
CCCCCC/C=C\CCCCCCCCCC(=O)NCC(=O)O [C18-cis-ω7-glycine]	3.0 ± 0.5
CCCCCCCCC=CCCCCCCCC(=O)NC(CCSC)C(=O)O [C18-cis-ω9-L-methionine]	2.6 ± 0.4
CCCCCCCC/C=C\CCCCCCCC(=O)NCC(=O)O [C18-cis-ω9-glycine]	2.7 ± 0.4
